Columns and labels:
[1] = system: human lung adenocarcinoma (A549); experiment: cells; type: cell-based; conditions: A549, 72 h, read-out: A549 IC50
Description: (§1) For a more accurate evaluation of cytotoxic activity, the effect on normal murine embryonic fibroblast cell line (BALB/3T3) was also tested according to the previously published procedure. Detailed information concerning antiproliferation assay can be found in Supplementary Materials. […]
(§2) The antiproliferative activity
(§3) Four human cancer cell lines and one murine normal cell line were used to evaluate […]
(§4) (A549), human breast adenocarcinoma (MCF-7), human colon adenocarcinoma cell lines sensitive and resistant to doxorubicin (LoVo), respectively, and normal murine embryonic fibroblast cell line (BALB/3T3). The BALB/3T3 cell line was purchased from the American Type Culture Collection (ATCC, Manassas, VA, USA), A549 and MCF-7 cell lines—from European Collection of Authenticated Cell Cultures (Salisbury, UK), LoVo cell line was purchased from the ATCC (ATCC, Manassas, VA, USA). All the cell lines are maintained in the Institute of Immunology and Experimental Therapy (IIET), Wroclaw, Poland. Human lung adenocarcinoma cell line was cultured in mixture of OptiMEM and RPMI 1640 (1:1) medium (IIET, Wroclaw, Poland), supplemented with 5% fetal bovine serum (GE Healthcare, Logan, UT, USA) and 2 mM L-glutamine (Sigma-Aldrich, Merck KGaA, Saint Louis, MO, USA). […]

[2] = system: normal murine embryonic fibroblast cell line (BALB/3T3); experiment: Antiproliferative assay in vitro (SRB, 72 h), BALB/3T3 normal cells; type: cell-based; conditions: Mus musculus, normal cell line BALB/3T3, 72 h, mean ± SD
Description: as §1, §2, §3, §4

## COc1cc2c(c(OC)c1OC)-c1ccc(OC)c(=O)cc1[C@@H](NC(C)=O)CC2 [colchicine, reference compound]
[1]
  IC50: 70 ± 10 nM
[2]
  IC50: 40 ± 10 nM

Reference: article PMC7179419 (Molecules, 2020)
